## Results of single-concentration screens

Chains of the proteins cited; added tags and fusions are not shown. Residues count along the entry.
UniProt I6X8D2, whole entry: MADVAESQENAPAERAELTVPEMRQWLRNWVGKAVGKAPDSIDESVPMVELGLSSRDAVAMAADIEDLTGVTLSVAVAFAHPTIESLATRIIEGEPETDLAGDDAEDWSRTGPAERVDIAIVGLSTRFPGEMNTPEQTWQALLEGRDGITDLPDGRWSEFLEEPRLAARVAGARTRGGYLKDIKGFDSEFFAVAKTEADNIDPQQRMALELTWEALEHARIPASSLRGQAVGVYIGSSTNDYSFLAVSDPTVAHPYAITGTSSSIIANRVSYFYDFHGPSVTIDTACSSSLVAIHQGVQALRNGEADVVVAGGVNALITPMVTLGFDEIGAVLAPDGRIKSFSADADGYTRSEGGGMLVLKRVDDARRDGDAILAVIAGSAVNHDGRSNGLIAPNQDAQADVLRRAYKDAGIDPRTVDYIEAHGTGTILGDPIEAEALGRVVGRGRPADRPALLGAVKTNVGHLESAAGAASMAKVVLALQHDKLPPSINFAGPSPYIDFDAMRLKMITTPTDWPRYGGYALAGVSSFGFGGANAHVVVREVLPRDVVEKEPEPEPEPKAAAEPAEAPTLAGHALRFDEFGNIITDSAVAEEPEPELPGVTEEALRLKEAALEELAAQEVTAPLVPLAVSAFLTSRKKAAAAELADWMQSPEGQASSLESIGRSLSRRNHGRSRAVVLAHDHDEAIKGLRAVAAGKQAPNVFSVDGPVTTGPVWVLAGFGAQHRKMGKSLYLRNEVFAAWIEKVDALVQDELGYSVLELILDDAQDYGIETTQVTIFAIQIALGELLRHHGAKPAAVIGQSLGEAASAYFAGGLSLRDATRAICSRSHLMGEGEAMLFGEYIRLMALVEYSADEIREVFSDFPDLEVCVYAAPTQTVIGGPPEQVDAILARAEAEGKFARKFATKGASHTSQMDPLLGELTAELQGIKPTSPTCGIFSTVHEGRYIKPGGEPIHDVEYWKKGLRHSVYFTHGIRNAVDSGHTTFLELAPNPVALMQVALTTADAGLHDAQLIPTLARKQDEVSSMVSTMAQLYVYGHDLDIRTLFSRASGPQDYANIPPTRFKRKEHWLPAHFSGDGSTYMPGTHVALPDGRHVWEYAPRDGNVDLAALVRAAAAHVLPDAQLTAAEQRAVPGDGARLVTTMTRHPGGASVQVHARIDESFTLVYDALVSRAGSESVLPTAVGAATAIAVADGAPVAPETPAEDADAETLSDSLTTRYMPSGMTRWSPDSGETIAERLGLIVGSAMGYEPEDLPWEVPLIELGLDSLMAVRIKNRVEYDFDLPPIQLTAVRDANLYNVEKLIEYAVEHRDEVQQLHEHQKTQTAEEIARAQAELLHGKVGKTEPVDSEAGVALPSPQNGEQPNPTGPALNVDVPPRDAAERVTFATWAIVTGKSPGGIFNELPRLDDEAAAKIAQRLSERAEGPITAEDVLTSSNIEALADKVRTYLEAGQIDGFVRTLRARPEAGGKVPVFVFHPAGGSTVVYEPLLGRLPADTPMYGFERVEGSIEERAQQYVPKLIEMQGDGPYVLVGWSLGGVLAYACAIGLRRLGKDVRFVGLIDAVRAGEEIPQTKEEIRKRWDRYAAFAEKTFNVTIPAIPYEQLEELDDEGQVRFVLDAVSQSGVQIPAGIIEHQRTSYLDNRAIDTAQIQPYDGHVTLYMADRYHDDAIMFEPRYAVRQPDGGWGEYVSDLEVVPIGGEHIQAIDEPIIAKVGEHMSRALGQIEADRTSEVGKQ
UniProt A4I591, 1-473: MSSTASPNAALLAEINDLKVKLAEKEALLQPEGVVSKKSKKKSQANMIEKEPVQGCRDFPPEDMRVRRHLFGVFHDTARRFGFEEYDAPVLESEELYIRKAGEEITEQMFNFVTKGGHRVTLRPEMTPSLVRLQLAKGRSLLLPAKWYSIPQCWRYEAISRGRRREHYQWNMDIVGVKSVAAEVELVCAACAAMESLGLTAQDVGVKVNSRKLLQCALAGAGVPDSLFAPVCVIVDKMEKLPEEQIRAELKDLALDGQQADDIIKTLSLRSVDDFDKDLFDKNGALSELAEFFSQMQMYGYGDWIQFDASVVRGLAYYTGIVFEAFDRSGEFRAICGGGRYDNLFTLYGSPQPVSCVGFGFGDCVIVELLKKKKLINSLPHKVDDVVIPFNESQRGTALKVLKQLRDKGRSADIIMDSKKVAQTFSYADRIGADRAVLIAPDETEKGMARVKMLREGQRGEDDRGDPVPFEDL

Source: ChEMBL document CHEMBL3988442, “University of Dundee, Small-Polar-MMV Screening Library” (2021).

Results are given as percent effect. The record does not define 0% and 100%; most values in the screen are far below 50% and negative numbers occur (in some assays of this library far below -100). Compounds were drawn at random from those tested, without regard to their results. A dash means the value is not listed here; it may have been measured.

Pks13 thioesterase: 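Enzyme assay of the thioesterase domain of polyketide synthase 13; the read-out is not stated. Target: Polyketide synthase Pks13, Mycobacterium tuberculosis (UniProt I6X8D2). Compounds at 30 µM. The record gives no direction; the compounds picked for IC50 retests had high values, so higher reads as stronger inhibition. Of about 67,000 compounds tested this way, about 300 (0.46%) reached 50% or more in at least one test.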
LiHisRS: 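Histidine-tRNA ligase, Leishmania infantum (UniProt A4I591). Enzyme assay of histidyl-tRNA synthetase; the read-out is not stated. Compounds at 30 µM. Higher reads as stronger inhibition (inferred: compounds with an IC50 in retests scored well above the rest). The assay is labelled LdHisRS but filed under L. infantum. Of about 69,000 compounds tested this way, about 410 (0.6%) reached 50% or more in at least one test.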

compound | Pks13 thioesterase | LiHisRS
CC(O)CCN(C)S(=O)(=O)Cc1ccc(Cl)c(Cl)c1 (stereo unspecified) | - | 11.67%
Cc1ncoc1C(=O)N1CCc2[nH]nc(-c3ccc4c(c3)OCO4)c2C1 | 4.602% | 25%
CCc1ncc2c(n1)CN(Cc1nnc(C)o1)CC2 | 0.02039% | 17.31%
COc1ccccc1OC1CCN(c2nccc(N)n2)CC1 | -31.76% | -3.448%
COCCN1CCO[C@@H]2CN(C(=O)Cc3ccccc3)CC[C@@H]2C1 | 5.957% | 16%
CC(=O)N1CCC(n2nccc2-c2cnc(N)nc2)CC1 | 37.78% | 5.714%
CCn1cc2c(n1)CN(C(=O)c1ccncc1)CC2COCC1CC1 (stereo unspecified) | -6.994% | 13.21%
CC(C)(C)Cc1nnc(NCc2ccsc2)o1 | -4.041% | 17.5%
CCc1noc(CNc2nc(-c3cccnc3)nc3c2CCNCC3)n1 | - | 13.98%
CN(C)CCN(Cc1ccccc1)C(=O)C1=NNC(=O)CC1 | -11.04% | 17.74%
O=C(NCCC1CN(Cc2cccnc2)CCO1)c1ccsc1 (stereo unspecified) | -31.51% | 17.14%
NC(=O)CCn1ccc(NCc2cc(F)ccc2Br)n1 | -93.92% | 1.961%
CCc1noc(CN2CCC(C(=O)Nc3cnn(CC)c3)CC2)n1 | -7.394% | 15.79%
Cc1cnc(N2CCCC(c3ccccc3)C2)nc1-c1ncnn1C (stereo unspecified) | 48.12% | 0%
COc1ccc(C2=CCN(C(=O)CN(C)Cc3ccco3)CC2)cc1 | 12.24% | 18.64%
c1cc(-c2cnc(NC3CC3)nc2[C@H]2CCCO2)ccn1 | -1.726% | 11.35%
Cc1nc(C2CCN(C(=O)COC(C)C)CC2)cc(N2CCOCC2)n1 | -2.281% | 13.89%
Cc1cc(NC(=O)CN2CCc3nn(C)c(=O)cc3C2)no1 | -8.569% | 100%
O=C(CN1CCOc2ccc(Cl)cc21)NCCCn1ccnc1 | - | 17.65%
CCc1ocnc1C(=O)N1CCC(n2cc(-c3ccsc3)nn2)CC1 | -19.93% | 16.13%
COc1cccc(CC(=O)N2CCCC(c3nncn3C)C2)c1 (stereo unspecified) | 5.348% | 13.16%
CNC(=O)[C@@H]1C[C@H]2CN(Cc3nccs3)C[C@H]2N1C | 0.6209% | 21.95%
Cc1nc(N2CCOc3ccc(CO)cc3C2)c2c(C)noc2n1 | -24.4% | 17.11%
CCCN(Cc1ccc(OC)nc1)Cc1ccccc1OC | -7.965% | 17.95%
O=C(c1ccccc1)N1CCO[C@@H]2CN(Cc3ccc[nH]3)C[C@@H]2C1 | 3.494% | 22.73%
Cc1ccc(C(=O)N2[C@@H]3CC[C@H]2CN(C)C(=O)C3)c(=O)[nH]1 | -1.468% | 15.93%
CCc1cccc(-n2nnc(C(=O)O)c2-c2ccncc2)c1 | -2.112% | 15.79%
CCn1cncc1CNc1ccc(-c2nc(CC(C)C)no2)cn1 | -78.08% | 24.18%
COCC(=O)N[C@H](C)c1c(-c2ccc(OC)cc2)noc1C(=O)O | -16.43% | 17.57%
CC(C)S(=O)(=O)NCC1CCCN(C(=O)c2ccc(F)cc2)C1 (stereo unspecified) | 9.242% | 14.52%
COCc1nc2c(o1)CN(C(=O)NCc1ccccc1)C2 | -31.63% | 16%
Cc1ccc(N2CCc3ncnc(C4CC4)c3CC2)nn1 | -41.96% | -6.306%
CCOCC(=O)N1C[C@H]2CC[C@@H]1CN(C(=O)c1ccncc1)C2 | -0.9467% | 8.333%
COCCN(CCOC)Cc1nc2c(cnn2C)c(=O)[nH]1 | -23.81% | 8.772%
CS(=O)(=O)N1CCN(c2ccnc(N3CCCC3)n2)CC1 | -37.55% | 9.589%
Cc1csc(C(C)(C)NCCNS(C)(=O)=O)n1 | -32.35% | 6.806%
CC(C)c1n[nH]c(C(=O)Nc2ccncc2)c1Br | -26.27% | 1.124%
O=C1CC(c2ccc(C(=O)O)cc2)c2ncn(-c3ccccc3)c2N1 (stereo unspecified) | 2.906% | 52.43%
O=S(=O)(c1ccc(F)cc1)N1CCN(CCCn2ccnc2)CC1 | -48.09% | 14.75%
O=C(c1ccc2c(c1)COC2)N1CCN(CCO)CC1 | -7.256% | 11.86%
COc1ccc(CNC(=O)N2CCCC(Nc3ccccc3)C2)cn1 (stereo unspecified) | -20.98% | 9.524%
Cc1cc(CN2CC[C@@H]3O[C@@H](c4nnc(C)o4)C[C@H]3C2)no1 | -7.208% | 18.92%
CN(C)c1ncc(-c2ccncc2)c(CCNC(=O)C2CC2)n1 | 5.79% | 8.633%
O=C(NC1CC1)[C@@H]1CCO[C@@H]2CCN(Cc3ccco3)C[C@H]21 | -3.391% | 10%
CCC(C(=O)NC(C)(C)C)n1cccc(OC)c1=O (stereo unspecified) | -21.53% | 12.68%
O=C1CC(c2ccncc2)C2(CCN(Cc3nccs3)CC2)N1 (stereo unspecified) | -16.45% | 14.55%
CCn1cnnc1C1CCN(C(=O)CCCOc2ccccc2)CC1 | -4.75% | 15.09%
Cc1cnn(CCC(=O)N2CCN(c3ccc(C#N)cn3)CC2)c1 | 8.898% | 10.53%
N#Cc1ccnc(N2CCN(CC(O)c3ccc(F)cc3)CC2)c1 (stereo unspecified) | -31.64% | 21.21%
COc1ccc(C2=Nn3c(CN)nnc3-c3ccccc3C2)cc1 | -103.6% | 45%

The first 4 entries again:

- CC(O)CCN(C)S(=O)(=O)Cc1ccc(Cl)c(Cl)c1 (stereo unspecified) | LiHisRS: 11.67%
- Cc1ncoc1C(=O)N1CCc2[nH]nc(-c3ccc4c(c3)OCO4)c2C1 | Pks13 thioesterase: 4.602%; LiHisRS: 25%
- CCc1ncc2c(n1)CN(Cc1nnc(C)o1)CC2 | Pks13 thioesterase: 0.02039%; LiHisRS: 17.31%
- COc1ccccc1OC1CCN(c2nccc(N)n2)CC1 | Pks13 thioesterase: -31.76%; LiHisRS: -3.448%